Experimental data as given in the supplement of paper PMC10849652.
Some of the results follow.

Sequences of proteins named here, by UniProt entry; tags and fusion partners are left off. A change or cut given only in a name is not applied to a line headed by its entry.
UniProt P31321, whole entry, looked up: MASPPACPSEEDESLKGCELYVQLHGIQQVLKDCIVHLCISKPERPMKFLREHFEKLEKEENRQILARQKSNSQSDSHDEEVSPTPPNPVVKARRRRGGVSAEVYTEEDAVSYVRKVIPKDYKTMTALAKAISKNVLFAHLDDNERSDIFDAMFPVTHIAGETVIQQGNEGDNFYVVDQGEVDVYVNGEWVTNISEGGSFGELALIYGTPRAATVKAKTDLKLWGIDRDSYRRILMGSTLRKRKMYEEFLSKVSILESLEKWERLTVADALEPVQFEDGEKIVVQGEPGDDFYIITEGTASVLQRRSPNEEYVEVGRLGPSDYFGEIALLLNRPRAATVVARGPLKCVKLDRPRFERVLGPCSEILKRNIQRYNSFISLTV
UniProt P30044: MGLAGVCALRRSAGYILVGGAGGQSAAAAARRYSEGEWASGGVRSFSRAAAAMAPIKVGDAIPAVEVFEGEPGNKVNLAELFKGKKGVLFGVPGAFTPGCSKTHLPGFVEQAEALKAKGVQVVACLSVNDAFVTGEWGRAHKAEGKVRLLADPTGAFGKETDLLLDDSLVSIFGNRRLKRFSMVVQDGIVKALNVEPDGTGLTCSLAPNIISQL
UniProt Q8WY54: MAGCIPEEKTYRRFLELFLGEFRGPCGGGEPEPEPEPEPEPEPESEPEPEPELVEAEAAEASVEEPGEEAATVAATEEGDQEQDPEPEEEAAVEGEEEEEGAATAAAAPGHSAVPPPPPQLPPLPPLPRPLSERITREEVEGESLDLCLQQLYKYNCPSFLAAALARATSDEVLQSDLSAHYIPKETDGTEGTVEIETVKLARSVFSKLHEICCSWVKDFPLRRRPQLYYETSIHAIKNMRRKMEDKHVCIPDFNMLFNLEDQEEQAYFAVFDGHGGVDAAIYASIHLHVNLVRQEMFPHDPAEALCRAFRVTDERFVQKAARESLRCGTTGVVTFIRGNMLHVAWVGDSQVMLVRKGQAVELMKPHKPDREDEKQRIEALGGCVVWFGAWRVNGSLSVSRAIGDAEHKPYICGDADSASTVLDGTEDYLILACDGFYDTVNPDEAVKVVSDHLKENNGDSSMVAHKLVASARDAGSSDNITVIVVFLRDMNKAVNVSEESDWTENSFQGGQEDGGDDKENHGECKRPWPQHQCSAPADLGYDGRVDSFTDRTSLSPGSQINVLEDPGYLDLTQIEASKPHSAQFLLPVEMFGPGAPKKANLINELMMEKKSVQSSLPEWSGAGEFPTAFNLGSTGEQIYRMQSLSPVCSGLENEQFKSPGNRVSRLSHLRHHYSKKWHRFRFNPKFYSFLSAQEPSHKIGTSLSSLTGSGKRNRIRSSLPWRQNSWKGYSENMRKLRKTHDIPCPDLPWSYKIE
UniProt O75400: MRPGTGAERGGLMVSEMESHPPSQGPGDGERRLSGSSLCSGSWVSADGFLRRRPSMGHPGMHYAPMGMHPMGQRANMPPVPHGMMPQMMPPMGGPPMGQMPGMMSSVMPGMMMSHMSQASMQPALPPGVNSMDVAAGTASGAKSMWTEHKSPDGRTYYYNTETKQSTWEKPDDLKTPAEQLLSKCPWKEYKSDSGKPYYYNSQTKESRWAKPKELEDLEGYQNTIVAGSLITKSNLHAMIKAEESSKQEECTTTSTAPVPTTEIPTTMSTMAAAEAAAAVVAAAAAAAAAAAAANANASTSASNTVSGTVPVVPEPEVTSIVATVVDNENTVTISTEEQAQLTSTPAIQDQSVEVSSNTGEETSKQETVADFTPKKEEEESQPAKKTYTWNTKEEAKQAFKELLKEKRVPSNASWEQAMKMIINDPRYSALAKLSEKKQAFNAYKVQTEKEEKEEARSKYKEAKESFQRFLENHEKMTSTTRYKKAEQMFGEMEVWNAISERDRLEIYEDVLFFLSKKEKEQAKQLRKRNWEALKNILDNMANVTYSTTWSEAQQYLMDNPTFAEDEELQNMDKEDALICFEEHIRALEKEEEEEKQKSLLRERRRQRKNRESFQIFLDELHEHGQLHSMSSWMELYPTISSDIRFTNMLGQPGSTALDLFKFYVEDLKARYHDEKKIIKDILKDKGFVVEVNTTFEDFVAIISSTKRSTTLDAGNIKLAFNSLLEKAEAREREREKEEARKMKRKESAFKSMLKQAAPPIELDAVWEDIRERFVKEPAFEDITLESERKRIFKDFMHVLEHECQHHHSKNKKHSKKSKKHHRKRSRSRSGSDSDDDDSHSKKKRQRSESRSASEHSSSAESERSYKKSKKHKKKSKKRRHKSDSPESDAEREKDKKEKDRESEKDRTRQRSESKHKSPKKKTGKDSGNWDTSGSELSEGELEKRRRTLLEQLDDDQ
UniProt Q13356: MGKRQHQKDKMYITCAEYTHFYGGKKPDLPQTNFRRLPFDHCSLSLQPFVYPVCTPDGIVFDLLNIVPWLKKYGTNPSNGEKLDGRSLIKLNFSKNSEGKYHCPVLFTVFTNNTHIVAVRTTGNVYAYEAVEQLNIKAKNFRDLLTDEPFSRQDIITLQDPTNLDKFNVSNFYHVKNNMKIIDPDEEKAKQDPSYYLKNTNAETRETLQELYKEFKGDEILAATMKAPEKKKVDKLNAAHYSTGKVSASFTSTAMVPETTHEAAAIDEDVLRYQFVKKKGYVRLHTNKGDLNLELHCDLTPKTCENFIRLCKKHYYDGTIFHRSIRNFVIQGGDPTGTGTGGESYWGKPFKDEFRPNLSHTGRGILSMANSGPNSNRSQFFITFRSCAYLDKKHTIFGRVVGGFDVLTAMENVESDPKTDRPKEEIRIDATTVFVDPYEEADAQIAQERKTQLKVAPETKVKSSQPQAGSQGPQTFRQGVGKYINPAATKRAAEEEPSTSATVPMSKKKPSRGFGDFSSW
UniProt Q92733: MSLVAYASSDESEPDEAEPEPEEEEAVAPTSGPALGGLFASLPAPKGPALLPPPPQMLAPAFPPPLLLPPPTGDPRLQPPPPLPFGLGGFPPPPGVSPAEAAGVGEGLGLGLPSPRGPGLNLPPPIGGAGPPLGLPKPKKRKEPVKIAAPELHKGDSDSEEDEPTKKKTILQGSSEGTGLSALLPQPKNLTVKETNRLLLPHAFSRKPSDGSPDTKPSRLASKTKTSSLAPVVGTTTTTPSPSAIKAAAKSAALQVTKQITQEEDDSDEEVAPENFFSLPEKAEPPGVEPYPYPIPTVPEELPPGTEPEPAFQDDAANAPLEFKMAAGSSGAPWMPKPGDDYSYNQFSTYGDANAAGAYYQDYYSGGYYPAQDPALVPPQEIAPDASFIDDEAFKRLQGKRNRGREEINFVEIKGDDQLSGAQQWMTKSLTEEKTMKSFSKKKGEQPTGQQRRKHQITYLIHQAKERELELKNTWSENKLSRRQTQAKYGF
UniProt Q9BZL4: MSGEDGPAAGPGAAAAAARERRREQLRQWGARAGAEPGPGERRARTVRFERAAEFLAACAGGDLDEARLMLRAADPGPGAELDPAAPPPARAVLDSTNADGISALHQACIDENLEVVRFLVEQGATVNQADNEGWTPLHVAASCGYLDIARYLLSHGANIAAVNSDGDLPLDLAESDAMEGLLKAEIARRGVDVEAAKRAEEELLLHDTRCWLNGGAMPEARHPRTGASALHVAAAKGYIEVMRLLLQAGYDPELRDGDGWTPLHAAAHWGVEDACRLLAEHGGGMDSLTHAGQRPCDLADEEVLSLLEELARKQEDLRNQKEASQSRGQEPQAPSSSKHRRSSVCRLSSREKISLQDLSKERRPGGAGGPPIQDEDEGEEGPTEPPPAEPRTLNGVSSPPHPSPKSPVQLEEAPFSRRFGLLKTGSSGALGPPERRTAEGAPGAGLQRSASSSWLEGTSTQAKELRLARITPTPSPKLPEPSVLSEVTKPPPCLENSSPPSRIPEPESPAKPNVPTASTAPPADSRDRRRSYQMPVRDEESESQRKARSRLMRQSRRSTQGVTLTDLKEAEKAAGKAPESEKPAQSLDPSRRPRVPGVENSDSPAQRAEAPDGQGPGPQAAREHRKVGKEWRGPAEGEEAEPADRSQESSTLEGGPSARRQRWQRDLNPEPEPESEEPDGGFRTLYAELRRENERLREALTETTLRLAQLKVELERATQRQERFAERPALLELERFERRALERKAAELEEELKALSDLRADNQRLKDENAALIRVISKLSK
UniProt P30048: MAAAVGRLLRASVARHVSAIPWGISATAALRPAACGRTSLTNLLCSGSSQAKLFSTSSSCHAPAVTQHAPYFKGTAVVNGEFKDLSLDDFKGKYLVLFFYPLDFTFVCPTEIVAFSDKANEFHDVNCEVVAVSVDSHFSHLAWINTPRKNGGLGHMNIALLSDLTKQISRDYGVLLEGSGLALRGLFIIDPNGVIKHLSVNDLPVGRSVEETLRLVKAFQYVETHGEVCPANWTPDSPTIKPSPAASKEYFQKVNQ
UniProt Q86XN7: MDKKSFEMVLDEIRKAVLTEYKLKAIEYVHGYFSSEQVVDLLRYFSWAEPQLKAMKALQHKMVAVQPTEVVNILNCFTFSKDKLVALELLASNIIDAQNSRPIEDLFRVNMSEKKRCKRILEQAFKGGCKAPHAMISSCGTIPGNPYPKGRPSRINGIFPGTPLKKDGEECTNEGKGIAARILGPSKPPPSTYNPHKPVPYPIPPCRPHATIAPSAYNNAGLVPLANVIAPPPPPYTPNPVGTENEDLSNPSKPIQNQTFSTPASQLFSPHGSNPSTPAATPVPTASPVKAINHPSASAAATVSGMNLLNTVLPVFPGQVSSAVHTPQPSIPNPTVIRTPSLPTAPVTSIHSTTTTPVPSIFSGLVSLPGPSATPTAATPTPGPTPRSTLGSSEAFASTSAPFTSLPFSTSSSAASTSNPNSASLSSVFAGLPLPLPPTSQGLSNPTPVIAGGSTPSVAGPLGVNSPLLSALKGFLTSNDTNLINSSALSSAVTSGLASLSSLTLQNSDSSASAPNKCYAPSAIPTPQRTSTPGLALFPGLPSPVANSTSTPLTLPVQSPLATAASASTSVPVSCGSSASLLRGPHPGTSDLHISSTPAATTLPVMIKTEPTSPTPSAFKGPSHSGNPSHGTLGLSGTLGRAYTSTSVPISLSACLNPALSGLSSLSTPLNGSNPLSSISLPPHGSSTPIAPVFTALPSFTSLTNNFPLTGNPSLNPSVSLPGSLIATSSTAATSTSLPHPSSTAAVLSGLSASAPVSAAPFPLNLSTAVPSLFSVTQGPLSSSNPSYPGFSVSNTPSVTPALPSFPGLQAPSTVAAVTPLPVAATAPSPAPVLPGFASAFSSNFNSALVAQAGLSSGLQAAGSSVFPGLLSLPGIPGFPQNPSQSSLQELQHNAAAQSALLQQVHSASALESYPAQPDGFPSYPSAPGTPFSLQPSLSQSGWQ
UniProt Q969Q6: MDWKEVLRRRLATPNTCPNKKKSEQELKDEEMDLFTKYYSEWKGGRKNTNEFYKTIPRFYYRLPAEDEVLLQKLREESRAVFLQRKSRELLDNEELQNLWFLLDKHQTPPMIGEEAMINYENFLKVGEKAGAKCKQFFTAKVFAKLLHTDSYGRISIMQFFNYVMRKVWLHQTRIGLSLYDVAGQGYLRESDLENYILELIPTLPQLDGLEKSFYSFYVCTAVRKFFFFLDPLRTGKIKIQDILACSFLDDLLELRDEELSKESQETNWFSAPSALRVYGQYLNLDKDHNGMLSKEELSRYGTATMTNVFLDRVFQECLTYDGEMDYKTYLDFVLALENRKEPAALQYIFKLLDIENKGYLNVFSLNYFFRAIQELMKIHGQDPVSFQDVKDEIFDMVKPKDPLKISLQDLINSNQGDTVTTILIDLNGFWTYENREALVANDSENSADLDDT
UniProt P50336: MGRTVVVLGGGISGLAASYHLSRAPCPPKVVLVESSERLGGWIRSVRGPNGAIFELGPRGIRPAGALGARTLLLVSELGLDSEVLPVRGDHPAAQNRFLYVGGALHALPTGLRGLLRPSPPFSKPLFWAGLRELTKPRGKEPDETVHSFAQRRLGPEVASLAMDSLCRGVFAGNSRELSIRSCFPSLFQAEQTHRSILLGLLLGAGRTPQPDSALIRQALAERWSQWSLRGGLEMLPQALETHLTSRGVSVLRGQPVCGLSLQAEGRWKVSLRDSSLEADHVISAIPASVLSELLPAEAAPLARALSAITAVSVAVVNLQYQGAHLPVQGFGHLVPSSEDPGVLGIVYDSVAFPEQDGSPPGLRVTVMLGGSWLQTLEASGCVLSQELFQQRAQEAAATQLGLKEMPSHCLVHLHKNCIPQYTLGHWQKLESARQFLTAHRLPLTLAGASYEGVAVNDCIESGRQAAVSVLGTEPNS
UniProt Q13162: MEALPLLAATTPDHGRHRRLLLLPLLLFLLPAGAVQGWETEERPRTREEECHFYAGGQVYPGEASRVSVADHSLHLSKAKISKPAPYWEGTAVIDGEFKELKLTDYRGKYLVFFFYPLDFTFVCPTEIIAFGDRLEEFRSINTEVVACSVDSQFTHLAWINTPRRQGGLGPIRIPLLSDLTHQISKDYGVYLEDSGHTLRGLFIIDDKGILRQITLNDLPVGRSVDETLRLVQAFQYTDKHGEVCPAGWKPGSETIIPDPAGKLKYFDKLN

Columns and labels:
Experiment in all cases: log2 fold change, soluble protein after heating vs DMSO (PISA); higher = thermal stabilisation; K562 lysate, 10 uM; active = over 0.2 and 3.5 SD of the protein, either way, in both replicates (recomputed)
ibrutinib = compound: C=CC(=O)N1CCC[C@@H](n2nc(-c3ccc(Oc4ccccc4)cc3)c3c(N)ncnc32)C1 [ibrutinib]
Method in brief: (§1)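 Quantification was by TMTpro 16plex LC-MS/MS with equalised channel sums, applied to the supernatant after 21,000xg for 90 min. Samples were crude K562 extract at 1 mg/mL protein in PBS pH 7.4 with 1 mM MgCl2, treated with 10 μM compound for 30 min, heated for 3 min across 48°C-58°C, pooled and brought to 0.5% NP-40 at 4°C. Values are log-two fold changes in thermal stability relative to solvent controls, from duplicates.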

[1] = compound: CC(=O)c1cnc2ccc(-c3cc(Cl)c(O)c(Cl)c3)nc2c1N[C@H]1CC[C@H](CN(C)C)CC1
Method in brief: as §1

ralimetinib = compound: CC(C)(C)Cn1c(N)nc2ccc(-c3[nH]c(C(C)(C)C)nc3-c3ccc(F)cc3)nc21 [ralimetinib]
Method in brief: as §1

[2] = compound: CC(C)(O)CC(=O)NCCn1ccc2ncnc(Nc3ccc(Oc4cccc(C(F)(F)F)c4)c(Cl)c3)c21
Method in brief: as §1

[3] = compound: CC(C)C1=C2N=C(C=C(N2N=C1)NCC3=CC=CC=C3)NCCCCCCN
Method in brief: as §1

[4] = compound: CC1=C(C(CC(=O)N1)C2=CC=C(C=C2)C(F)(F)F)C(=O)NC3=C(C=C4C(=C3)C=NN4)F
Method in brief: as §1

[5] = compound: CC1=C(C2=C(C=C1)C(=O)C3=CC=CC=C3N2CCCN)C
Method in brief: as §1

[6] = compound: CC1=C(C=C(C=C1)NC(=O)C2=CC(=CC=C2)C(C)(C)C#N)NC3=CC4=C(C=C3)N=CN(C4=O)C
Method in brief: as §1

[7] = compound: CC1=C(C=C(C=C1)NC(=O)C2=CC(=CC=C2)N(C)C)NC(=O)C3=CC=C(C=C3)O
Method in brief: as §1

[8] = compound: CC1=CC=C(C=C1)SC2=C3C=C(SC3=CN=C2)C(=O)N
Method in brief: as §1

Measured: log2 fold change

PRKAR1B (UniProt P31321)
inactive: ibrutinib 0 | [1] 0.003 | ralimetinib -0.029 | [2] 0.118 | [3] -0.015 | [4] -0.012 | [5] 0.095 | [6] -0.046 | [7] -0.023 | [8] 0.035

PRKCI (UniProt P41743)
inactive: ibrutinib -0.011 | [1] 0.022 | ralimetinib 0.016 | [2] 0.004 | [3] 0.036 | [4] -0.009 | [5] -0.035 | [6] 0.04 | [7] 0.009 | [8] -0.008

PRMT5 (UniProt O14744)
inactive: ibrutinib 0.004 | [1] -0.002 | ralimetinib -0.015 | [2] 0.004 | [3] -0.004 | [4] -0.015 | [5] -0.008 | [6] 0.001 | [7] -0.01 | [8] 0.022

PRAME (UniProt P78395)
inactive: ibrutinib 0.009 | [1] 0.029 | ralimetinib 0.003 | [2] 0.005 | [3] 0.011 | [4] 0.015 | [5] 0.003 | [6] 0.006 | [7] 0.008 | [8] 0.002

PRDX5 (UniProt P30044)
inactive: ibrutinib 0.002 | [1] -0.01 | ralimetinib 0.01 | [2] -0.02 | [3] -0.007 | [4] -0.027 | [5] 0.002 | [6] 0.02 | [7] -0.012 | [8] 0.003

PPM1E (UniProt Q8WY54)
inactive: ibrutinib -0.038 | [1] 0.072 | ralimetinib 0.041 | [2] -0.02 | [3] -0.011 | [4] 0.007 | [5] -0.009 | [6] -0.038 | [7] -0.002 | [8] 0.037

PRPF40A (UniProt O75400)
inactive: ibrutinib 0.083 | [1] 0.003 | ralimetinib -0.016 | [2] -0.002 | [3] -0.008 | [4] 0.013 | [5] 0.005 | [6] -0.053 | [7] -0.017 | [8] 0.019

PPP6C isoform 3 (UniProt O00743)
inactive: ibrutinib 0.015 | [1] 0.031 | ralimetinib 0.04 | [2] 0.018 | [3] 0.009 | [4] -0.044 | [5] 0.044 | [6] 0.006 | [7] 0.007 | [8] -0.005

PPIL2 (UniProt Q13356)
inactive: ibrutinib -0.002 | [1] -0.003 | ralimetinib 0.02 | [2] 0.025 | [3] 0.046 | [4] 0.011 | [5] -0.017 | [6] 0.033 | [7] 0.003 | [8] 0.005

PPP3CA isoform 2 (UniProt Q08209)
inactive: ibrutinib 0.017 | [1] 0.012 | ralimetinib -0.01 | [2] -0.052 | [3] -0.014 | [4] 0 | [5] -0.03 | [6] 0.03 | [7] 0.028 | [8] -0.012

PRKACA (UniProt P17612)
inactive: ibrutinib 0.021 | ralimetinib 0.029 | [2] -0.106 | [3] -0.045 | [4] 0.059 | [5] -0.046 | [6] -0.118 | [7] -0.008 | [8] -0.057
active: [1] 0.767

PPP4R2 (UniProt Q9NY27)
inactive: ibrutinib -0.012 | [1] -0.007 | ralimetinib -0.015 | [2] -0.058 | [3] 0.003 | [4] 0 | [5] 0 | [6] -0.007 | [7] 0.003 | [8] -0.019

PRCC (UniProt Q92733)
inactive: ibrutinib 0.044 | [1] -0.008 | ralimetinib -0.02 | [2] -0.019 | [3] 0.015 | [4] 0.039 | [5] -0.01 | [6] 0.065 | [7] 0 | [8] -0.03

PPP1R12C isoform 4 (UniProt Q9BZL4)
inactive: ibrutinib 0.022 | [1] -0.002 | ralimetinib 0.016 | [2] -0.018 | [3] -0.002 | [4] 0.04 | [5] -0.028 | [6] 0.022 | [7] 0.001 | [8] -0.03

PQBP1 (UniProt O60828)
inactive: ibrutinib 0.033 | [1] -0.017 | ralimetinib -0.024 | [2] 0.046 | [3] 0.007 | [4] 0.006 | [5] -0.007 | [6] 0.037 | [7] -0.01 | [8] -0.007

PRDX3 (UniProt P30048)
inactive: ibrutinib -0.02 | [1] -0.004 | ralimetinib -0.013 | [2] -0.015 | [3] 0.013 | [4] -0.036 | [5] -0.016 | [6] 0.054 | [7] 0.02 | [8] -0.033

PPP1R3D (UniProt O95685)
inactive: ibrutinib -0.077 | [1] -0.003 | ralimetinib -0.025 | [2] -0.004 | [3] -0.055 | [4] -0.02 | [6] 0.035 | [7] -0.024 | [8] -0.014

PRMT1 (UniProt Q99873)
inactive: ibrutinib -0.008 | [1] -0.018 | ralimetinib -0.006 | [2] 0.01 | [3] 0 | [4] -0.027 | [5] -0.015 | [6] 0.056 | [7] -0.001 | [8] 0.01

PPP2R2D (UniProt Q66LE6)
inactive: ibrutinib -0.115 | [1] 0.084 | ralimetinib 0.044 | [2] 0.021 | [3] -0.008 | [4] -0.089 | [5] 0.033 | [6] 0.021 | [7] -0.002 | [8] -0.077

PROSER1 (UniProt Q86XN7)
inactive: ibrutinib 0.009 | [1] 0.1 | ralimetinib 0.181 | [2] -0.072 | [3] -0.05 | [4] 0.137 | [5] -0.04 | [7] -0.044 | [8] 0.005

PPP1R11 (UniProt O60927)
inactive: ibrutinib -0.037 | [1] 0.058 | ralimetinib 0.062 | [2] -0.021 | [3] -0.024 | [4] 0.1 | [5] 0.052 | [6] 0.059 | [7] -0.037 | [8] -0.01

PRPF3 (UniProt O43395)
inactive: ibrutinib -0.003 | [1] -0.011 | ralimetinib 0.03 | [2] -0.005 | [3] 0.021 | [4] -0.002 | [5] 0.019 | [6] -0.044 | [7] 0.068 | [8] 0.007

PPP1R12B isoform 6 (UniProt O60237)
inactive: ibrutinib 0.019 | [1] -0.112 | ralimetinib 0.01 | [2] -0.251 | [3] 0.095 | [5] 0.106 | [6] 0.142 | [7] -0.012 | [8] -0.194

PRPF18 (UniProt Q99633)
inactive: ibrutinib 0.021 | [1] -0.021 | ralimetinib -0.035 | [2] 0.007 | [3] 0.002 | [4] -0.008 | [5] -0.018 | [6] 0.139 | [7] -0.026 | [8] -0.009

PPP2R3C (UniProt Q969Q6)
inactive: ibrutinib 0.108 | [1] 0.089 | ralimetinib 0.109 | [2] 0.036 | [3] -0.088 | [4] 0.021 | [5] -0.02 | [7] 0.048 | [8] 0.196

PPIP5K2 (UniProt H0Y9S9)
inactive: ibrutinib 0.053 | [1] 0.052 | ralimetinib -0.188 | [2] -0.19 | [3] 0.093 | [5] -0.076 | [7] 0.113 | [8] -0.027

PPOX (UniProt P50336)
inactive: ibrutinib 0.067 | [1] -0.008 | ralimetinib 0.001 | [2] 0.091 | [3] 0.301 | [4] -0.022 | [5] -0.138 | [6] 0.105 | [7] 0.006 | [8] 0.012

Random excerpt: 2 entries already listed
PPIP5K2 (UniProt H0Y9S9)
inactive: ibrutinib 0.053 | [1] 0.052 | ralimetinib -0.188 | [2] -0.19 | [3] 0.093 | [5] -0.076 | [7] 0.113 | [8] -0.027

PPOX (UniProt P50336)
inactive: ibrutinib 0.067 | [1] -0.008 | ralimetinib 0.001 | [2] 0.091 | [3] 0.301 | [4] -0.022 | [5] -0.138 | [6] 0.105 | [7] 0.006 | [8] 0.012

(list continues)

PPP1R21 (UniProt Q6ZMI0)
inactive: ibrutinib -0.015 | [1] -0.012 | ralimetinib -0.023 | [2] -0.074 | [3] 0.011 | [4] -0.048 | [5] 0.013 | [6] 0.1 | [7] 0.011 | [8] 0.023

PRMT3 (UniProt O60678)
inactive: ibrutinib -0.018 | [1] -0.01 | ralimetinib -0.017 | [2] -0.094 | [3] 0.001 | [4] -0.044 | [5] 0.021 | [6] 0.022 | [7] -0.02 | [8] -0.012

PRDX4 (UniProt Q13162)
inactive: ibrutinib 0.052 | [1] 0.014 | ralimetinib 0.06 | [2] -0.021 | [3] 0.005 | [4] -0.006 | [5] -0.006 | [6] 0 | [7] 0.022 | [8] -0.024

PPM1H (UniProt Q9ULR3)
inactive: ibrutinib 0.058 | [1] -0.032 | ralimetinib -0.008 | [2] -0.035 | [3] 0.019 | [5] -0.028 | [6] 0.048 | [7] -0.007 | [8] 0.02
